Data reported in publication PMC10845965, “Gold(I) ion and the phosphine ligand are necessary for the anti-Toxoplasma gondii activity of auranofin” (Microbiology Spectrum, 2024).

Key:
HFF host cells = test: Host cell viability and TD50 determination; assay type: cell-based, human; conditions: ratio of TD50 on host cells over IC50 on parasites
Description: Confluent monolayers of HFF host cells (approximately 1 × 10^4) plated in clear bottom 96-well plates were treated with twofold dilutions of compounds of interest. After 5 days of incubation, 15 µL of dye solution (tetrazolium salt) was added to each well. The plates were incubated at 37°C for 4 hours; then, the reaction was stopped to solubilize the formazan product (Cell Titer 96 Nonradioactive Cell Proliferation Assay Promega). Absorbance at 570 ʎ (A570) was recorded using a multimode microplate plate reader (Molecular Devices Spectramax i5, SoftMax Pro 7.0.2 Software). The A570 absorbance reading is directly proportional to the number of viable cells. The values are presented as percentages of cell viability relative to the untreated controls (defined as 100% survival) and plotted against the log of compound concentrations. The log (auranofin derivative) vs cell viability curve with variable slope was generated to calculate TD50 values.

T. gondii tachyzoites = test: Quantitative detection of gold by ICP-MS; assay type: cell-based, Toxoplasma gondii; conditions: auranofin 10 µM, 4 hours

SMILES | In vitro therapeutic index (HFF host cells) | gold concentration in parasites (ICP-MS) (T. gondii tachyzoites; extracellular parasites) [ppb] | gold concentration in parasites (ICP-MS) (T. gondii tachyzoites; intracellular parasites (exposed inside host cells)) [ppb]
CC(=O)OC[C@H]1O[C@@H]([S-])[C@H](OC(C)=O)[C@@H](OC(C)=O)[C@@H]1OC(C)=O.CCP(CC)CC.[Au+] [Auranofin] | 9.2 | 7.181 | 3.701
[Cl][Au][PH](Cc1ccccc1)(c1ccccc1)c1ccccc1 [Compound 6] | 10.6 |  | 
[Cl][Au].c1ccc(P(c2ccccc2)c2ccccc2)cc1 [Compound 31] | 126.2 |  | 
